# Source: PubChem BioAssay AID504793 (Drosophila RNAi Screening Center, 2011)
# Screen: 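Genes required for cells to halt at G2/M after double-strand DNA breaks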 (primary screen)
# System: Drosophila S2R+ cells
# Reagent: long dsRNA against Drosophila genes, about 0.25 µg dsRNA per well
# Timing: 4 days of dsRNA, then 4 hours of drug before read-out
# Challenge: doxorubicin 0.5 µM for 4 hours to cause double-strand breaks, in cells also given a low, harmless dose of dsRNA against nbs to sensitise the assay
# Measurement: 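Per-well count of mitotic cells stained for phospho-histone H3 after doxorubicin exposure, used as mitotic index; counts are raw and not normalised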
# Scale: mitotic cells: higher = more cells in mitosis, weaker G2 arrest
# Hit rule: 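a call needs confirmation in secondary tests, with other dsRNAs and a check of mitotic timing without damage, not just a high primary count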
# Calls: active = confirmed in follow-up tests; inactive = not confirmed
# The screen tested about 23,000 reagents; shown is a random part of those that have a named target and a result. Of all reagents, 62 (0.27%) are marked active. 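Calls come from follow-up tests whose scores are not deposited, so confirmed genes may have low counts here; counts are not normalised per plate.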 Raw values vary from plate to plate and are shown uncorrected. Names joined by + are all predicted targets of the reagent.
target,dsRNA,"mitotic cells, replicate 1",outcome
Polr3E,DRSC11880,4,inactive
Polr3E,DRSC23914,1,inactive
nrm,DRSC11599,16,inactive
nrm,DRSC11897,11,inactive
CG18095,DRSC01948,8,inactive
CG6978,DRSC18409,9,inactive
PAN2,DRSC07115,5,inactive
CG42699,DRSC18076,9,inactive
CG42699,DRSC18341,19,inactive
CG42699,DRSC25221,12,inactive
CG16717,DRSC10221,3,inactive
CG16717,DRSC29511,7,inactive
CG14803,DRSC18556,14,inactive
Dlg5,DRSC02964,4,inactive
Dlg5,DRSC27257,10,inactive
APC7,DRSC17937,5,inactive
APC7,DRSC27097,6,inactive
GlyT,DRSC04512,3,inactive
GlyT,DRSC26130,8,inactive
kumpel,DRSC14883,6,inactive
kumpel,DRSC16459,8,inactive
kumpel,DRSC16460,9,inactive
kumpel,DRSC16461,8,inactive
kumpel,DRSC16462,5,inactive
kumpel,DRSC16463,8,inactive
kumpel,DRSC25593,8,inactive
kumpel,DRSC27664,6,inactive
swaPsi,DRSC21685,3,inactive
CG31546,DRSC12317,6,inactive
CG31546,DRSC25825,6,inactive
usp,DRSC18847,9,inactive
usp,DRSC24447,6,inactive
tio,DRSC03739,5,inactive
Tim10 + CG42497,DRSC04664,5,inactive
Lerp,DRSC14750,12,inactive
Lerp,DRSC14751,17,inactive
Lerp,DRSC16030,9,inactive
Lerp,DRSC16031,4,inactive
Treh,DRSC04548,2,inactive
Treh,DRSC28721,6,inactive
CG4854,DRSC15663,13,inactive
CG4854,DRSC27454,7,inactive
DJ-1alpha,DRSC07005,5,inactive
mRpS14,DRSC19444,5,inactive
CG6028,DRSC15951,4,inactive
Cpr62Bc,DRSC08545,4,inactive
Cpr62Bc,DRSC26471,1,inactive
yl,DRSC20387,13,inactive
yl,DRSC29027,3,inactive
CG12994,DRSC19514,11,inactive
IscU,DRSC16572,12,inactive
Rtnl1,DRSC00851,8,inactive
Rtnl1,DRSC02684,8,inactive
Rtnl1,DRSC03122,8,inactive
Rtnl1,DRSC21698,5,inactive
Cpr49Ac,DRSC07199,4,inactive
CG14739,DRSC14959,8,inactive
hoip,DRSC03546,1,inactive
Dbx,DRSC08271,5,inactive
Dbx,DRSC08394,5,inactive
Dbx,DRSC25311,3,inactive
Dbx,DRSC29604,6,inactive
CG12708,DRSC19490,12,inactive
not,DRSC11378,9,inactive
ppk15,DRSC14733,16,inactive
ppk15,DRSC27947,6,inactive
CG13510,DRSC04152,3,inactive
CG6231,DRSC15997,8,inactive
CG6927,DRSC18407,6,inactive
Amph,DRSC07578,6,inactive
Zasp67,DRSC10169,5,inactive
Zasp67,DRSC24457,6,inactive
Sr-CIII,DRSC22262,9,inactive
CG34337,DRSC18435,13,inactive
Dlic,DRSC19824,72,inactive
Jon74E,DRSC10617,14,inactive
Jon74E,DRSC23947,5,inactive
CG30095,DRSC07175,9,inactive
BomT2,DRSC06631,5,inactive
CG6149,DRSC10593,6,inactive
GstE10,DRSC06671,6,inactive
GstE10,DRSC28568,11,inactive
nkd,DRSC11376,2,inactive
nkd,DRSC26962,5,inactive
CG6638,DRSC10680,3,inactive
CG6638,DRSC24246,2,inactive
olf186-M,DRSC07657,10,inactive
CG3631,DRSC15503,7,inactive
CG3631,DRSC29768,9,inactive
kek5,DRSC19438,7,inactive
kek5,DRSC24470,6,inactive
CG8202,DRSC16396,5,inactive
CG32591,DRSC19063,27,inactive
Tollo,DRSC11305,,inactive
SecCl,DRSC10887,2,inactive
stet,DRSC08246,9,inactive
stet,DRSC08283,5,inactive
Camta,DRSC07272,3,inactive
Camta,DRSC23081,17,inactive
Camta,DRSC23156,18,inactive
Camta,DRSC26757,6,inactive
Camta,DRSC27929,2,inactive
Gr2a,DRSC18603,11,inactive
CG42507 + Trl,DRSC09325,6,inactive
CG42507 + Trl,DRSC25045,8,inactive
CG3045,DRSC04331,7,inactive
Phk-3,DRSC04547,5,inactive
NaPi-III,DRSC10893,5,inactive
NaPi-III,DRSC22953,23,inactive
NaPi-III,DRSC28299,12,inactive
NaPi-III,DRSC28977,1,inactive
CG9400,DRSC20182,9,inactive
CG9316,DRSC03195,1,inactive
CG31270 (retired record),DRSC22252,6,inactive
CG31270 (retired record),DRSC28445,7,inactive
CG13887,DRSC08357,6,inactive
CG31706,DRSC22704,6,inactive
CG42674,DRSC10066,5,inactive
CG42674,DRSC10067,5,inactive
CG42674,DRSC10811,4,inactive
CG42674,DRSC25036,8,inactive
CG42674,DRSC29701,5,inactive
Usp5,DRSC08244,2,inactive
Usp5,DRSC28531,4,inactive
Nxt1,DRSC04630,3,inactive
Nxt1,DRSC28865,7,inactive
CG5532,DRSC04509,12,inactive
CkIIbeta,DRSC20230,15,inactive
Spt5,DRSC07556,16,active
Sas10,DRSC18355,4,inactive
Sgf29,DRSC04076,13,inactive
Fpgs1,DRSC19857,12,inactive
Fpgs1,DRSC25579,11,inactive
CG15260,DRSC01977,4,inactive
CG10802,DRSC17762,6,inactive
CG10802,DRSC29607,5,inactive
CG13220,DRSC06342,8,inactive
Rcd-1,DRSC19569,17,inactive
ebo,DRSC18787,5,inactive
ebo,DRSC28174,13,inactive
